In test [1] the target is NELF-E (human (endogenous in Cal-62)) (UniProt P18615). The test is described as follows: co-IP; endogenous proteins in Cal-62 lysates (RIPA buffer); 4 ug primary antibody overnight at 4 C, protein G Dynabeads 2 h, immunoblot; anti-IgG as control; some panels from cells treated with DMSO or niraparib, or with scrambled or PARP1 siRNA for 48 h.
In test [2] the target is RNF146-flag (UniProt Q9NTX7). The test is described as follows: co-IP; Cal-62 cells expressing RNF146-flag, lysed with RIPA buffer; immunoprecipitation with flag antibody, immunoblot. For orientation: A western blot detects proteins with antibodies after separation by electrophoresis.

Sequences of proteins named here, by UniProt entry; tags and fusion partners are left off.
UniProt P18615: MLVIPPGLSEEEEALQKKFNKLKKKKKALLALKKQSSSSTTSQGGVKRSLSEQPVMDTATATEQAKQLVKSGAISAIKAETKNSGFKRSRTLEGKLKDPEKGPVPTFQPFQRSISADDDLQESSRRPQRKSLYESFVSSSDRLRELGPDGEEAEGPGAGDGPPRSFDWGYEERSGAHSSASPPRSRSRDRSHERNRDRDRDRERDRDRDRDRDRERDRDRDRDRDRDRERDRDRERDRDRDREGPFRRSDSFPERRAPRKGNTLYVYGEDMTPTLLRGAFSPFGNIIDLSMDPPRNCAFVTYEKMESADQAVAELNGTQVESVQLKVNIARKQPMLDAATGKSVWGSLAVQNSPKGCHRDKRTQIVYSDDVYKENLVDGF
UniProt Q9NTX7: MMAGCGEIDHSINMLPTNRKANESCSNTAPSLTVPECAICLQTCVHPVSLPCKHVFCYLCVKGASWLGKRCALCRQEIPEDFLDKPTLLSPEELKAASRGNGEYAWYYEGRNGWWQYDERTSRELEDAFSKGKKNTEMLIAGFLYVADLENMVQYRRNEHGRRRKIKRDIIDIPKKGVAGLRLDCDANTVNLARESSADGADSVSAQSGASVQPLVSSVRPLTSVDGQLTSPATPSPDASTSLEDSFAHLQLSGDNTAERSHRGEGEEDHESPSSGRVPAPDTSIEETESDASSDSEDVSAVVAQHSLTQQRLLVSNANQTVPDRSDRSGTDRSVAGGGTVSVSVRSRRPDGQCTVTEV
UniProt P09874: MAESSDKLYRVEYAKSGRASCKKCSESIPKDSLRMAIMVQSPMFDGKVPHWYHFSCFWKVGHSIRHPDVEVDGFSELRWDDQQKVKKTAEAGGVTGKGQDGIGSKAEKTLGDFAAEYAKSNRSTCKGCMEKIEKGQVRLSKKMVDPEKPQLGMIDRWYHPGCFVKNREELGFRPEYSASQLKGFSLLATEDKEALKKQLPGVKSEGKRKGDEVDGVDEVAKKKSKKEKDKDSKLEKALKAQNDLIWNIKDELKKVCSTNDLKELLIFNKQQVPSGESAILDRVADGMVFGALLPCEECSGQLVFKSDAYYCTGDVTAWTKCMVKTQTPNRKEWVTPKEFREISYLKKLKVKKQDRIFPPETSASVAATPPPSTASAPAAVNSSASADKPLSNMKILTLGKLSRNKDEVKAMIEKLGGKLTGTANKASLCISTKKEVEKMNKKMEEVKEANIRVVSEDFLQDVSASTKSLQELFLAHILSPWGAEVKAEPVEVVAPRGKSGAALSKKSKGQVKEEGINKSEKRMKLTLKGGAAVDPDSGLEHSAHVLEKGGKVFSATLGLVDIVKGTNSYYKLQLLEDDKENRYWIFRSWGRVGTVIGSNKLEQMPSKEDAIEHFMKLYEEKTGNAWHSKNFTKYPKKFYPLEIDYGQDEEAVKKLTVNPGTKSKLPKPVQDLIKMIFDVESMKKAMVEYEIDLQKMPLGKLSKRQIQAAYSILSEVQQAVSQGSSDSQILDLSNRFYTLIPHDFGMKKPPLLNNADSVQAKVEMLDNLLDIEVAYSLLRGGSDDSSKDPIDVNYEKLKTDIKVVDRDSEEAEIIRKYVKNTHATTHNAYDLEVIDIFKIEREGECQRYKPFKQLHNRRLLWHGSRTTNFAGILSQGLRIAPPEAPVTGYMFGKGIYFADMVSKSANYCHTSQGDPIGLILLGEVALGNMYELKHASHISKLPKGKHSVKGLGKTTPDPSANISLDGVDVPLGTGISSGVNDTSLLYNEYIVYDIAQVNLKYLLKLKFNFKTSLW
UniProt Q04206: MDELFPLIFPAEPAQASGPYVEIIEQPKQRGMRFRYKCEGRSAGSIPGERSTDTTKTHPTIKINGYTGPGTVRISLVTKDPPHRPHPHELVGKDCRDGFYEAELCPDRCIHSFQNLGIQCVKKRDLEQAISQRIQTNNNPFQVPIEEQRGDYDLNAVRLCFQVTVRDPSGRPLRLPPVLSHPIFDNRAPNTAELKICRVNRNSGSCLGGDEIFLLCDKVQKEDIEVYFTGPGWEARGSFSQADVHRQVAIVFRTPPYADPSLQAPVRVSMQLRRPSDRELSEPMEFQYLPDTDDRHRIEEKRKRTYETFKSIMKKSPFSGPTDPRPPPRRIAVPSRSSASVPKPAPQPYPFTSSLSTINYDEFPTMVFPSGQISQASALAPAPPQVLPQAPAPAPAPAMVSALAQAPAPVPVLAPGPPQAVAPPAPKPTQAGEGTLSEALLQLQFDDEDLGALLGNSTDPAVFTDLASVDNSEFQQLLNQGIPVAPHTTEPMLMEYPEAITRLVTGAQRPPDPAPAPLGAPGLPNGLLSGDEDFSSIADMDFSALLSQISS

Experimental findings from article PMC10411462 are described below.

These are yes or no findings as the source states them, for the method shown. Binding seen in cells or lysates may run through a third protein. Some entries that bind do so weakly or less than the wild type.

In the case of PARP1 (from UniProt P09874 1-1014), the binding entry in test [1] is recorded as “binds”.
With p65 (from UniProt Q04206 1-551), the binding result in test [2] is reported as “binds”.
